# Measurements reported in PubChem BioAssay (NCATS).
# Amino acid sequences for entries named in this document (tags omitted). A change or cut given only in a name is not applied to a line headed by its entry.
# UniProt Q9UNA4: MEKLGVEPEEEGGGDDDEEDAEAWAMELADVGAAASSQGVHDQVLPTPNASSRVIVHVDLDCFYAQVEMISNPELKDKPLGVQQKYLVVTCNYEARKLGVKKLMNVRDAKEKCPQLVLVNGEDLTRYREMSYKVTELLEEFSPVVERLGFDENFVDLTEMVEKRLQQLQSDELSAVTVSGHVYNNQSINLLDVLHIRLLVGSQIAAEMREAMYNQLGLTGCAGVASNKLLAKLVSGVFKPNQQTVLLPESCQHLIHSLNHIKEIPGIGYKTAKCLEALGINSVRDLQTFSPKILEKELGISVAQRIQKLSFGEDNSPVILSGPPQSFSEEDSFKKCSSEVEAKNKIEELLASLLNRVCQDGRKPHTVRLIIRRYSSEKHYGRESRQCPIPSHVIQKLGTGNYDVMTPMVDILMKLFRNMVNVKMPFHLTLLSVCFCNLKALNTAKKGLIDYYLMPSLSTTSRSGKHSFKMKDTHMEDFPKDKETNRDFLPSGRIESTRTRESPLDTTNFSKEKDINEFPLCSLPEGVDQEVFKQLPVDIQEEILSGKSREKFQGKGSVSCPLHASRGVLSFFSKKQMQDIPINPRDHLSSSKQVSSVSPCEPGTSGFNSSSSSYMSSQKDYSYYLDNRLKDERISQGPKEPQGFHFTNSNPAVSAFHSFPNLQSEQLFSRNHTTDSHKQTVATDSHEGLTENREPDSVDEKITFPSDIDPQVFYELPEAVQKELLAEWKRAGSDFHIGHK
# UniProt P07378: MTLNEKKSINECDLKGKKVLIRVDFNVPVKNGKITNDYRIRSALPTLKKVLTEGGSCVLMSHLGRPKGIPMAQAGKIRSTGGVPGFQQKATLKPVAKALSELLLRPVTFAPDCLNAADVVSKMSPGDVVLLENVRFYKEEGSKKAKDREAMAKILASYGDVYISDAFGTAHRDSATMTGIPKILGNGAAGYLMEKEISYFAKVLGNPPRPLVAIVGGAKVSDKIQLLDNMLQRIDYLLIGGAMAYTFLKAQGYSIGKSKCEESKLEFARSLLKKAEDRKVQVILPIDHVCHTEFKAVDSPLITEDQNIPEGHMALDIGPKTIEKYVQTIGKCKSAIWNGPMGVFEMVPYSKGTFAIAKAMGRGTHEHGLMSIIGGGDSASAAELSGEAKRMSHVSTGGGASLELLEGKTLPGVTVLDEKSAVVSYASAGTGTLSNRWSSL
# UniProt Q9Y253: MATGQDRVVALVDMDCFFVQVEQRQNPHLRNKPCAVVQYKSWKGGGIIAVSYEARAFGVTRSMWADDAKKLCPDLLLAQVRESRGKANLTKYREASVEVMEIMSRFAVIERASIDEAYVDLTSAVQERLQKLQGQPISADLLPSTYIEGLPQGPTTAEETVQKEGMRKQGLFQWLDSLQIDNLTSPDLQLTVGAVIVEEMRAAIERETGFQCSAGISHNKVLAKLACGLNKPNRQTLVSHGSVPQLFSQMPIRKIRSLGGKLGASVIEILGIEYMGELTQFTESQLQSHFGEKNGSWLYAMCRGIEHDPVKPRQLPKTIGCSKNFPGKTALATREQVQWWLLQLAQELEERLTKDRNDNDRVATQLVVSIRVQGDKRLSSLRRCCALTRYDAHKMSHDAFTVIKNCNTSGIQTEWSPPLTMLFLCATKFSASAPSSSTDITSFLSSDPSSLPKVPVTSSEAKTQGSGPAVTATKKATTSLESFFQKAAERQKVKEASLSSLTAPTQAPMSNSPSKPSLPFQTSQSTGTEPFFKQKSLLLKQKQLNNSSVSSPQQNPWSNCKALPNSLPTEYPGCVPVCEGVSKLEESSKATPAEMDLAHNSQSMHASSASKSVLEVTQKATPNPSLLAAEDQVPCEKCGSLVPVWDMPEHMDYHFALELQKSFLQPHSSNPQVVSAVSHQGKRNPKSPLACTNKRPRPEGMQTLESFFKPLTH
# UniProt P54132: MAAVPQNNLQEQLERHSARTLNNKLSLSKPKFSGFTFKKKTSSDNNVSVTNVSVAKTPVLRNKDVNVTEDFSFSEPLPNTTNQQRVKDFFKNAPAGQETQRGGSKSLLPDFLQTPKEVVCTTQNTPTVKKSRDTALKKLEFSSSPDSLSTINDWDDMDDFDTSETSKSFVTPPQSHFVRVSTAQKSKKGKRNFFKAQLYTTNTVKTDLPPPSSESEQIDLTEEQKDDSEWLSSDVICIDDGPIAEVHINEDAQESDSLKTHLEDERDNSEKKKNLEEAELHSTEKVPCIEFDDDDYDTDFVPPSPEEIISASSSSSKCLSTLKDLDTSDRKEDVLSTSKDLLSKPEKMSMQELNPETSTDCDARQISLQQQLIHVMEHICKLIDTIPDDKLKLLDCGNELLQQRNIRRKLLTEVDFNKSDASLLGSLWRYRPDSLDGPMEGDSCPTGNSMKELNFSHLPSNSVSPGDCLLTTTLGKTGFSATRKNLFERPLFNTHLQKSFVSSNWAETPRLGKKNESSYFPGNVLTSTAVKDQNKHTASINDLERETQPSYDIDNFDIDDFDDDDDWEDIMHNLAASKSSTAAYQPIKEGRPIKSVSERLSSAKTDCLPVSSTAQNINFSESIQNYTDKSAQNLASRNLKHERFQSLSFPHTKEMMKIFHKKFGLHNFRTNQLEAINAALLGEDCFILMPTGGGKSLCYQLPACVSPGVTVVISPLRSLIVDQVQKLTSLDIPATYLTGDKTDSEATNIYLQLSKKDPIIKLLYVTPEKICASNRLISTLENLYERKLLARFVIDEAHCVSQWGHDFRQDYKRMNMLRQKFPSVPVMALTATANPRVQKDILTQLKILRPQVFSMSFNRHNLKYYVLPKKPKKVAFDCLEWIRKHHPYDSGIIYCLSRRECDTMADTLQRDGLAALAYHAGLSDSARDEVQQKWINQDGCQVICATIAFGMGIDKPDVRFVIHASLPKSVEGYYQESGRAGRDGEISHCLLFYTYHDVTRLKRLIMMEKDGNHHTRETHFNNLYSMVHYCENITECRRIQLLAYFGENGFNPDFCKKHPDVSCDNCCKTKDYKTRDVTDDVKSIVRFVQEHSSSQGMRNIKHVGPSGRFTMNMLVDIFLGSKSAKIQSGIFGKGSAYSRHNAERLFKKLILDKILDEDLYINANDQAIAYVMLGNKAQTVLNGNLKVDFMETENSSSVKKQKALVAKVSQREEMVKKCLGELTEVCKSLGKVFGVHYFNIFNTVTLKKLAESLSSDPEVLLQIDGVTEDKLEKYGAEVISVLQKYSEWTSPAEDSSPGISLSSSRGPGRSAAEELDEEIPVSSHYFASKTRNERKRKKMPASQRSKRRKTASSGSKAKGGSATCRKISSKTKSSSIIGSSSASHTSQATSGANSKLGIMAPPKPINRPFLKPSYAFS
# UniProt P39748, whole entry, looked up: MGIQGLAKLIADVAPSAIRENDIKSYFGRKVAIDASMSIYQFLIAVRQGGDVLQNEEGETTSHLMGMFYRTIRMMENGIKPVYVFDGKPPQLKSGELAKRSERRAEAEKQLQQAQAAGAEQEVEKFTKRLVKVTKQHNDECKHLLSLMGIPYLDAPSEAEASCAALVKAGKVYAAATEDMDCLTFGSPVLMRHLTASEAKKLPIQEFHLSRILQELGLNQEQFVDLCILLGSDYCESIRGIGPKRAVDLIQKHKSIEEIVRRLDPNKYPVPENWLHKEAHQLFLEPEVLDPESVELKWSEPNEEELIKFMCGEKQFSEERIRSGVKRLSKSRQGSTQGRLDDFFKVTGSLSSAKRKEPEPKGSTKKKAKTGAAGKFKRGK
# UniProt Q9UBT6: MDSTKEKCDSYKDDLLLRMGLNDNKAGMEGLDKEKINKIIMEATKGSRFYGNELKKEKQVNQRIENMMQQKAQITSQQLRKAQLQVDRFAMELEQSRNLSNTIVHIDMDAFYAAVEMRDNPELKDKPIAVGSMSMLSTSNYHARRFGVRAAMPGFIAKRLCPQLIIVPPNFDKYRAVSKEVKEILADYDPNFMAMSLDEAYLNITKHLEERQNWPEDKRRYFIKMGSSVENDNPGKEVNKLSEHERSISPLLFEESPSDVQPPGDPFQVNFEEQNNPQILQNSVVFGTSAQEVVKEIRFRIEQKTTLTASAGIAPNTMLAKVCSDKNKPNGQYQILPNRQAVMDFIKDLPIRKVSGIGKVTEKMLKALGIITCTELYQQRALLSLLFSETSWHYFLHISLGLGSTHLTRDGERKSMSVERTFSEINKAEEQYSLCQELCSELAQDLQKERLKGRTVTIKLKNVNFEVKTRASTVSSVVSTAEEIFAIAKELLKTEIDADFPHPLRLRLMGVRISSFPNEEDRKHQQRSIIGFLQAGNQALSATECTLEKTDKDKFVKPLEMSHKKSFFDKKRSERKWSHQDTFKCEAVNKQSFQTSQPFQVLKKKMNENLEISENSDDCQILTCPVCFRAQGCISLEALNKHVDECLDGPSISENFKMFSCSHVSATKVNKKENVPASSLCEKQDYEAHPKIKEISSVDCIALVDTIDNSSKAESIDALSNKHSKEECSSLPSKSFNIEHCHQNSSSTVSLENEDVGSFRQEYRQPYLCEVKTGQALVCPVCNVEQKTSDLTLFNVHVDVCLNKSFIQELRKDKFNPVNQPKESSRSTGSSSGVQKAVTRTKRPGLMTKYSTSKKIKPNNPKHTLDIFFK
# This list was built around the results that the source calls inconclusive (neither active nor inactive); the mix of calls is not that of the screen. Where the call is inconclusive, the potency comes from a doubtful curve fit. The source made the active and inactive calls. Calls come from the whole dose curve; as a rule, active = well fitted curve in the direction sought with a large enough effect; inconclusive = small, poorly fitted or top-dose-only effect, or another doubt; inactive = no such curve, though single readings can be large; an effect the other way counts as inactive or inconclusive.
# Tests used:
# [1] = target: DNA polymerase iota (Homo sapiens) (UniProt Q9UNA4); assay: qHTS for Inhibitors of Polymerase Iota: Confirmatory Assay for Cherry-picked Compounds (AID 720496); settings: Pol iota primer extension, TAMRA/BHQ fluorescence
# Procedure, shortened: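 Read-out is TAMRA fluorescence (525 nm excitation, 598 nm emission) at 0 and 10 min. It reflects strand displacement from a BHQ-2-quenched template by 10 nM Pol iota, with 50 nM final substrate after 15 min compound preincubation.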
# [2] = target: Phosphoglycerate kinase, glycosomal (Trypanosoma brucei brucei) (UniProt P07378); assay: qHTS for inhibitors of Phosphogylcerate Kinase: Hit Validation Screen (AID 686980); settings: TbPGK coupled GAPDH assay, Kinase-Glo luminescence; for potency: nearly all actives have a fitted effect of over 65% in size
# Procedure, shortened: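 Luminescent ATP detection (Kinase-Glo Plus) follows a 60-minute room-temperature incubation, with wells lacking PGK as controls. Buffer: 100 mM TEA (pH 7.6), 5 mM MgCl2, 0.01% Tween-20. Coupling enzyme GAPDH (100 nM final) supplies unstable 1,3-BPG in-well.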
# [3] = target: DNA polymerase eta (Homo sapiens) (UniProt Q9Y253); assay: qHTS for Inhibitors of Polymerase Eta: Confirmatory Assay for Cherry-picked Compounds (AID 720502); settings: Pol eta primer extension, TAMRA/BHQ fluorescence, 10 min
# Procedure, shortened: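 Readout: TAMRA dequenching, ex 525/em 598 nm, read at 0 and 10 min. Enzyme: 10 nM human Pol eta, preincubated with compound 15 min RT. Substrate: 50 nM final annealed primer/reporter/template duplex.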
# [4] = qHTS for Inhibitors of WRN Helicase: Thiazole Orange DNA Binding Counterscreen (AID 720499); settings: thiazole orange DNA binding displacement, fluorescence;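 note: drop in dye fluorescence marks compound binding to DNA; nearly all actives have a fitted effect of over 60% in size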
# Procedure, shortened: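 Readout: ThO fluorescence, ex 480 nm/em 530 nm. Mix: 50 nM unlabeled DNA, 100 nM ThO. Compounds pintooled in, 15 min RT before reading.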
# [5] = target: RecQ-like DNA helicase BLM (Homo sapiens) (UniProt P54132); assay: qHTS for Inhibitors of WRN Helicase: BLM Helicase Counterscreen for WRN Inhibitors (AID 720503); settings: Recombinant BLM helicase DNA unwinding, red fluorescence; note: nearly all actives have a fitted effect of over 60% in size
# Procedure, shortened: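 Steps: compounds added to 1 nM BLM in pH 8.0 Tris buffer with 2 mM MgCl2; 15 min room-temperature incubation; substrates added (100 nM DNA, 2 mM ATP final); discontinuous kinetic fluorescence measurement, reads spaced 15 min.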
# [6] = target: Flap endonuclease 1 (Homo sapiens) (UniProt P39748); assay: qHTS Assay for the Inhibitors of FEN1: Confirmatory Assay for Cherry-picked Compounds (AID 720498); settings: FEN1 flap cleavage, TAMRA/BHQ2 fluorogenic DNA substrate; note: nearly all actives have a fitted effect of over 60% in size
# Procedure, shortened: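 FEN1 at 10 nM was preincubated with compound for 15 min at room temperature, then 50 nM (final) double-flap DNA substrate was added. TAMRA fluorescence released from the BHQ-2-quenched flap was read at 0 and 15 min (ex 525/em 598 nm).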
# [7] = target: DNA polymerase kappa (Homo sapiens) (UniProt Q9UBT6); assay: qHTS for Inhibitors of Polymerase Kappa: Confirmatory Assay for Cherry-picked Compounds (AID 720501); settings: purified Pol-kappa, fluorescent strand-displacement substrate
# Procedure, shortened: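 10 nM human Pol-kappa was preincubated with compound 15 min at room temperature, then 50 nM (final) primer/template substrate with TAMRA-labeled reporter strand and BHQ-2-labeled template added. Fluorescence (Ex 525, Em 598 nm) read at 0 and 10 min.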
# Potency is the fitted concentration of half-maximal effect.
smiles,measurement,setting,value
O=C(Nc1cccc(-c2nc3ccccc3s2)c1)c1cc(=O)c2ccccc2o1,Potency,[1],"inconclusive: 42.3 µM [inhibitor, partial curve]"
C=C(C)C(=O)Nc1cccc(C2=NOC3(C2)C[C@@H](C(N)=O)N(C(=O)/C(C)=C/C)C3)c1 (stereo partly drawn),Potency,[2],"inconclusive: 1.46 µM [inhibitor, full curve]"
same,Potency,[3],active: 6.75 µM
CCOc1cc(/C=C2/NC(=S)NC2=O)ccc1OCc1ccc([N+](=O)[O-])cc1,Potency,[1],"inconclusive: 67 µM [inhibitor, partial curve]"
C=C(C)C(=O)Nc1cccc(C2=NOC3(C2)C[C@@H](C(N)=O)N(C(=O)C2(C)CC2)C3)c1 (stereo partly drawn),Potency,[2],"inconclusive: 0.73 µM [inhibitor, full curve]"
same,Potency,[1],"inconclusive: 42.3 µM [inhibitor, partial curve]"
O=C(O)CCCN1C(=O)/C(=C/c2ccc(-c3nc4ccccc4s3)o2)SC1=S,Potency,[2],"inconclusive: 4.61 µM [inhibitor, full curve]"
Cc1cc(C=O)c(C)n1-c1cc(C(=O)O)cc(C(=O)O)c1,Potency,[2],"inconclusive: 10.3 µM [inhibitor, partial curve]"
same,Potency,[3],active: 5.36 µM
Cc1nn(C(C)C(=O)NC2C(=O)N3C(C(=O)O)=C(CSc4nnnn4C)CSC23)cc1Cl (stereo not drawn),Potency,[2],inactive
same,Potency,[3],"inconclusive: 84.9 µM [inhibitor, single point]"
CCCN(C(=O)c1cccc(-n2cccc2)c1)c1c(N)n(Cc2ccccc2)c(=O)[nH]c1=O,Potency,[1],active: 29.9 µM
Cc1cccc2sc(NC(=O)C3CCN(S(=O)(=O)c4cc([N+](=O)[O-])ccc4Cl)CC3)nc12,Potency,[4],"inconclusive: 24.1 µM [inhibitor, partial curve]"
N=C1/C(=C\c2ccc(Br)o2)C(=O)N=C2SC(CC(=O)N3CCOCC3)=NN12,Potency,[3],active: 23.9 µM
same,Potency,[5],"inconclusive: 21.5 µM [inhibitor, partial curve]"
O=c1c(C(c2ccc(O)cc2)c2c(O)nc3n(c2=O)CCCS3)c(O)nc2n1CCCS2,Potency,[3],active: 75.7 µM
CN(C)C(=O)COC(=O)c1ccc(S(=O)(=O)NCc2ccco2)cc1,Potency,[1],active: 59.7 µM
same,Potency,[3],active: 37.9 µM
O=C1C=CC(=O)N1c1ccccc1N1C(=O)C=CC1=O,Potency,[1],"inconclusive: 42.3 µM [inhibitor, partial curve]"
same,Potency,[6],"inconclusive: 75.7 µM [inhibitor, partial curve]"
same,Potency,[3],"inconclusive: 84.9 µM [inhibitor, single point]"
CC1OC(Oc2c(-c3cc(O)c(O)c(O)c3)oc3cc(O)cc(O)c3c2=O)C(O)C(O)C1O (stereo not drawn),Potency,[1],"inconclusive: 75.2 µM [inhibitor, partial curve]"
same,Potency,[6],active: 2.69 µM
COc1cccc(NC(=O)Cn2cc(C(=O)c3ccc(C)cc3)c(=O)c3cc(OC)ccc32)c1,Potency,[1],active: 47.4 µM
same,Potency,[6],"inconclusive: 53.6 µM [inhibitor, partial curve]"
CCN(CC)c1ccc2nc3ccc(N)cc3[n+](-c3ccccc3)c2c1,Potency,[1],active: 18.9 µM
same,Potency,[3],active: 75.7 µM
COc1ccccc1NC(=O)Cn1c(O)c(N=NC(=O)c2ccccc2O)c2ccccc21,Potency,[1],"inconclusive: 84.4 µM [inhibitor, partial curve]"
same,Potency,[7],"inconclusive: 75.2 µM [inhibitor, partial curve]"
O=C(Cc1cccs1)N/N=C/C=C/c1ccco1,Potency,[1],"inconclusive: 67 µM [inhibitor, partial curve]"
same,Potency,[3],"inconclusive: 60.1 µM [inhibitor, partial curve, poor fit]"
COc1ccc(C(=O)N/N=C/c2ccc(OC)c(COc3c(F)c(F)cc(F)c3F)c2)cc1,Potency,[1],"inconclusive: 37.7 µM [inhibitor, partial curve]"
same,Potency,[7],"inconclusive: 42.3 µM [inhibitor, partial curve]"
O=C(O)/C(=C\c1ccc(Cl)c([N+](=O)[O-])c1)c1ccc(S(=O)(=O)N2CCCC2)s1,Potency,[1],"inconclusive: 75.2 µM [inhibitor, partial curve]"
same,Potency,[7],"inconclusive: 75.2 µM [inhibitor, partial curve]"
same,Potency,[3],"inconclusive: 84.9 µM [inhibitor, single point]"
O=C(Nc1nccs1)c1cc(-c2ccco2)nc2ccccc12,Potency,[1],"inconclusive: 67 µM [inhibitor, partial curve]"
same,Potency,[3],"inconclusive: 75.7 µM [inhibitor, partial curve, poor fit]"

# Given bar-delimited: part of the list above
smiles | measurement | setting | value
C=C(C)C(=O)Nc1cccc(C2=NOC3(C2)C[C@@H](C(N)=O)N(C(=O)/C(C)=C/C)C3)c1 (stereo partly drawn) | Potency | [3] | active: 6.75 µM
Cc1cc(C=O)c(C)n1-c1cc(C(=O)O)cc(C(=O)O)c1 | Potency | [3] | active: 5.36 µM
COc1cccc(NC(=O)Cn2cc(C(=O)c3ccc(C)cc3)c(=O)c3cc(OC)ccc32)c1 | Potency | [6] | inconclusive: 53.6 µM [inhibitor, partial curve]
